Data reported in publication PMC8326128.
Results are given in words; binding and its absence hold for the method and conditions named. Some results given as binding are weak or reduced against the parent protein; the word gives no strength.

The chains behind the UniProt entries cited, without tags or fusion partners. Where a name states a change or a piece, a line headed by the entry shows the natural chain unless it says otherwise. A line that says so, or that is headed by a name, gives the form on record, which may keep a tag or linker. Residues count along the entry.
MyRF_(S587A) (mouse MyRF residues 351-717, noncleavable mutant) (Q3UR85-3, form named): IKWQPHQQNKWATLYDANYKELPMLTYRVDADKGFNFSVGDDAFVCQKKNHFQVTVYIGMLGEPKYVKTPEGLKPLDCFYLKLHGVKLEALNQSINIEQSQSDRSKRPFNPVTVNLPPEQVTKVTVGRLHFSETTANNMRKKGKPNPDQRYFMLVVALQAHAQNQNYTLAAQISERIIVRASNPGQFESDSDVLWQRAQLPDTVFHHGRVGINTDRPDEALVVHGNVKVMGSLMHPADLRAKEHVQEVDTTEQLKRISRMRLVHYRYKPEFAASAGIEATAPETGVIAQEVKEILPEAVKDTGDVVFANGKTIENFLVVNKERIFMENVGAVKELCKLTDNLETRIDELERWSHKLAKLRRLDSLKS

Molecular target: MyRF_(S587A) (mouse MyRF residues 351-717, noncleavable mutant) (mouse) (UniProt Q3UR85)
Assay: crystal structure; sitting drop vapor diffusion, 16 °C, 8% PEG6000, 0.1 M cacodylate pH 5.5 or 10% PEG6000, 1 M LiCl, 0.1 M MES pH 6.5; space group P321, 2.4 Å; trimer generated by crystal symmetry; protein split into DBD and stalk-ICA fragments during crystallization; both purified

binding: binds
Substance: MyRF_(S587A) (mouse MyRF residues 351-717, noncleavable mutant) (from UniProt Q3UR85-3 351-717) (domain or fragment)
